Assay results: PubChem BioAssay AID2417 (National Center for Advancing Translational Sciences (NCATS), 2010)
The whole screen tested about 140,000 compounds, of which about 4,300 (3.1%) were called active. Inconclusive results, whose numbers are uncertain, are shown with a selection of clear calls.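 Rule for the calls: active = readout at or below -70, meaning at least 70% loss of cells showing the perinucleolar compartment, a nuclear body marking cancer cells; inconclusive = readout between -30 and a set limit; inactive = the rest.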

Test: High Content Assay for Compounds that inhibit the Assembly of the Perinucleolar Compartment;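 note: plate controls were DMSO wells for no effect and camptothecin positive control wells for full effect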
Conditions: PC3M PTB-GFP, PNC prevalence imaging, 16 h; at 10 µM; hits give low values
Method in brief: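 PC3M cells stably expressing PTB-GFP, 750–1000 cells/well, treated 16 h at 37 °C with compound (23 nl of library stock), in duplicate. After paraformaldehyde fixation and Hoechst stain, imaged at 20x; PNC prevalence scored by image analysis.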

| Compound | activity change (PNC), negative = inhibition |
| --- | --- |
| COCCn1c(N)c(C(=O)Nc2sc3c(c2C(=O)OC)CCCC3)c2nc3ccccc3nc21 | inconclusive: -64.3% |
| Cc1cc(C)c2[nH]c(=O)c(CN(Cc3ccco3)C(=O)c3cccs3)cc2c1 | inactive: -20.3% |
| N#Cc1ccsc1NC(=O)COC(=O)c1ccc2ccccc2c1 | inactive: 44.3% |
| COc1c(C(=O)N2CCCC2)ccc2ccccc12 | inconclusive: -31.6% |
| CCN1CCN(/C=N/c2nc3c(s2)CCCC3)CC1 | inconclusive: -66% |
| Cc1ccnc(N/N=C/c2ccccc2)n1 | inconclusive: -44.3% |
| CCOC(=O)C1CCN(C(=O)CNC(=O)OC(C)(C)C)CC1 | inconclusive: -41.9% |
| CCOC(=O)c1c(C)nc2sc3c(=O)[nH]cnc3c2c1-c1ccc(OC)cc1 | inactive: 38.3% |
| CCN(CC)CCNc1nc(-c2ccccc2)nnc1C(F)(F)F | inactive: -22.8% |
| Cc1ccc(-c2nc3ccccc3[nH]2)cc1NC(=S)NC(=O)c1ccccc1Br | inactive: 34.1% |
| Cc1cccc(-n2c3nc(=O)[nH]c(=O)c-3cc3cc([N+](=O)[O-])ccc32)c1 | inactive: -15.7% |
| CCc1cccc2c(SC(C)C(=O)NCC3CCCO3)nc(-c3ccccc3)nc12 (stereo unspecified) | inconclusive: -66.3% |
| CCOC(=O)C1(C(=O)OCC)CC1c1ccccc1 (stereo unspecified) | inconclusive: -61.1% |
| OCCN1CCN(CCSc2ccccc2)CC1 | inconclusive: -63.4% |
| O=C(NNC1=C(C(=O)C(F)(F)F)CCC1)c1ccc(Cl)cc1 | inconclusive: -42.3% |
| Cc1ccc2c(c1)C(O)(CC(=O)c1ccc3c(c1)OCO3)C(=O)N2 (stereo unspecified) | inconclusive: -75.3% |
| COCCCNC(=O)c1cc2c(=O)n3cccc(C)c3nc2n(C(C)C)c1=N | inconclusive: -48.7% |
| Cc1ccc(OCCCn2ccnc2)cc1C | inconclusive: -35.3% |
| CC(=O)C1=C(C)NC(SCC(N)=O)=C(C#N)C1c1cccnc1 (stereo unspecified) | inactive: -29.3% |
| CC1SCC(=O)N(CC(=O)Nc2ccc3c(c2)OCO3)C1=O (stereo unspecified) | inconclusive: -40.2% |
| COc1ccc(N2CSC3=C(C#N)C(c4cccs4)CC(=O)N3C2)cc1 (stereo unspecified) | inconclusive: -73% |
| O=C(O)c1cc(Br)ccc1NN=C1CCCCC1 | inconclusive: -58.3% |
| COc1ccc(CCN(C(=O)C(F)(F)F)C(C(=O)NC2CCCC2)c2cccs2)cc1OC (stereo unspecified) | inconclusive: -34.1% |

| Compound | activity change (PNC), negative = inhibition |
| --- | --- |
| CCOC(=O)c1cccc(NC(=O)CSc2nnc(-c3cccnc3)n2C)c1 | inconclusive: -36.2% |
| CCOC(=O)Cc1csc(NC(=O)CC)n1 | inconclusive: -50.4% |
| C=CCNc1sc(C(=O)c2cccs2)c(N)c1C#N | active: -119% |
| CCOC(=O)C1=C(C)OC(N)=C(C#N)C1c1ccc(OC)c(CSc2ccccn2)c1 (stereo unspecified) | inconclusive: -44.6% |
| CC(C)CC(COCc1ccc(Cl)cc1)N1CCN(C(=O)c2ccc(C(F)(F)F)cc2)CCC1=O (stereo unspecified) | inactive: 49.5% |
| Cn1nc(C(=O)OCCN2C(=O)c3ccccc3C2=O)c2ccccc2c1=O | inactive: 27.9% |
| COc1cc(NC(=O)COC(=O)CNC(=O)c2ccc(C)cc2)c(C)cc1[N+](=O)[O-] | inactive: 20.3% |
| CCCCNC(=O)CCn1c(=O)c2ccccc2n(Cc2ccc(F)cc2)c1=O | inactive: -3.82% |
| COc1ccc(C2CC(C(F)(F)F)n3nc(C(=O)O)cc3N2)cc1OC (stereo unspecified) | inconclusive: -33.5% |
| Cc1ccc(-n2c(SCC(=O)NCc3ccco3)nc3sc4c(c3c2=O)CC(C)(C)SC4)cc1 | inconclusive: -37.1% |
| O=C(CN1CCN(c2ncc(C(F)(F)F)cc2Cl)CC1)Nc1ccc2c(c1)OCO2 | active: -86.4% |
| CCC(=O)Nc1nnc(SCC(=O)c2ccc3c(c2)Cc2ccccc2-3)s1 | inconclusive: -36.7% |
| COc1ccc(N2CN=C3SCC(=O)N3C2)cc1 | inconclusive: -34.6% |
| CCCCn1nc(C(=O)N[C@@H](CCSC)c2nc3ccccc3[nH]2)c2ccccc2c1=O | inconclusive: -31% |
| NS(=O)(=O)c1ccc(NC(=S)NCc2ccccc2Cl)cc1 | inactive: -20.8% |
| CC(C)(C)c1ccc(OCC(=O)N2CCN(C=O)CC2)cc1 | inconclusive: -59.3% |
| COc1ccc(C2C=C(c3ccc(C)cc3)Nc3ncnn32)cc1 (stereo unspecified) | inactive: 2.84% |
| O=C(c1ccc(Cl)c([N+](=O)[O-])c1)N(c1ccccn1)c1ccccn1 | inconclusive: -78.1% |
| Cc1ccc(-c2c[n+](Cc3ccc(Cl)c(Cl)c3)c3n2CCC3)cc1 | inactive: -2.73% |
| CC(=O)c1cc2cc(O)ccc2o1 | inconclusive: -36.2% |
| CC1=C(C(=O)Nc2ccccc2C)C(c2ccc(C)o2)NC(=S)N1 (stereo unspecified) | inactive: -25% |
| COc1ccccc1OCc1ccc(C(=O)N/N=C/c2ccco2)cc1 | active: -114% |
| CCn1nc(C)c(NS(=O)(=O)c2ccccc2)c1C | active: -105% |

| Compound | activity change (PNC), negative = inhibition |
| --- | --- |
| CCOc1ccc2ncc(S(=O)(=O)c3ccc(C)cc3)c(N3CCC4(CC3)OCCO4)c2c1 | inconclusive: -33.6% |
| Cc1cc(C)cc(N(CC(=O)NC2CCC(C)CC2)S(=O)(=O)c2c(C)noc2C)c1 (stereo unspecified) | inconclusive: -38.4% |
| O=C(NCc1ccc(Cl)cc1)C(=O)NCC(c1ccco1)N1CCOCC1 (stereo unspecified) | inactive: -24% |
| CC(C)(C)c1ccc(C(=O)NCCC(=O)N2CCN(c3ncccn3)CC2)cc1 | inconclusive: -63.8% |
| CCCCNC(=O)CCNS(=O)(=O)c1ccc(C)cc1 | inconclusive: -31.4% |
| COCCN1CCc2c(C)nc3c(-c4ccc(OC)c(OC)c4)cnn3c21 | inconclusive: -38.3% |
| O=C1C(Cl)=C(NCCc2ccccc2)C(=O)N1CCc1ccccc1 | inactive: 26.2% |
| COCCNC(=O)C(C)N1c2cccc3cccc(c23)S1(=O)=O (stereo unspecified) | inconclusive: -33.6% |
| Cc1oc(CSCC2CCCO2)cc1C(=O)O (stereo unspecified) | inconclusive: -38.6% |
| COc1ccc(-n2cc(C(=O)O)c3ccccc3c2=O)cc1 | inconclusive: -53.8% |
| CCC(CC)NC(=O)c1ccccc1Oc1ccccc1 | inconclusive: -32% |
| COCCCNC(=O)c1ccc(N(C)S(C)(=O)=O)cc1 | inconclusive: -52.9% |
| Cc1cccc(CC2CC(=O)N(C3CCCCC3)C2=O)c1 (stereo unspecified) | inconclusive: -38.2% |
| CCOC(=O)CSc1nc(N)c(C#N)c(-c2cccs2)c1C#N | inactive: 37.1% |
| CCN(CC)CCN1C(=O)c2oc3ccccc3c(=O)c2C1c1ccccc1 (stereo unspecified) | inconclusive: -44.9% |
| Cc1cccc(NC(=S)NCc2ccco2)c1C | inconclusive: -50.6% |
| CCOC(=O)N1CCC(NC(=O)c2cc(C(=O)Nc3ccc(OC)c(OC)c3)ccc2CO)CC1 | inconclusive: -73.8% |
| COc1ccc(-c2nc3c(Br)c(N)c(Br)cc3o2)cc1 | inactive: -12.8% |
| O=S(=O)(c1ccc2c(c1)OCCO2)N1CCN(Cc2ccc3c(c2)OCO3)CC1 | inconclusive: -72.9% |
| Cc1ccccc1C(=O)Nc1nncs1 | inactive: 5.63% |
| CC(=O)c1cccc(NC(=O)CSC(=O)c2ccccc2)c1 | inconclusive: -68.7% |
| Cc1cc(N2CCN(c3cccc(C(F)(F)F)c3)CC2)n2ncnc2n1 | inconclusive: -42.7% |
| Cc1ccc(/C(O)=C2\C(=O)C(=O)N(CC(C)O)C2c2ccc(N(C)C)cc2)cc1 (stereo unspecified) | inactive: -13.2% |

Copied from the list.
Value for CCC(CC)NC(=O)c1ccccc1Oc1ccccc1 under activity change (PNC), negative = inhibition: inconclusive: -32%
Value for Cc1cccc(NC(=S)NCc2ccco2)c1C under activity change (PNC), negative = inhibition: inconclusive: -50.6%
Value for O=C(NCc1ccc(Cl)cc1)C(=O)NCC(c1ccco1)N1CCOCC1 (stereo unspecified) under activity change (PNC), negative = inhibition: inactive: -24%
Value for Cc1oc(CSCC2CCCO2)cc1C(=O)O (stereo unspecified) under activity change (PNC), negative = inhibition: inconclusive: -38.6%
Value for CC(C)(C)c1ccc(C(=O)NCCC(=O)N2CCN(c3ncccn3)CC2)cc1 under activity change (PNC), negative = inhibition: inconclusive: -63.8%
Value for Cc1cc(C)cc(N(CC(=O)NC2CCC(C)CC2)S(=O)(=O)c2c(C)noc2C)c1 (stereo unspecified) under activity change (PNC), negative = inhibition: inconclusive: -38.4%
Value for Cc1cc(N2CCN(c3cccc(C(F)(F)F)c3)CC2)n2ncnc2n1 under activity change (PNC), negative = inhibition: inconclusive: -42.7%

(next part)

| Compound | activity change (PNC), negative = inhibition |
| --- | --- |
| FC(F)(F)c1nc(-c2cccs2)ncc1-c1nnnn1-c1ccc(Cl)cc1 | inconclusive: -52.3% |
| CCSc1ccccc1C(=O)Nc1cccnc1 | active: -100% |
| O=C(COc1cccc2cccnc12)Nc1nccs1 | inconclusive: -57.7% |
| O=C(NNS(=O)(=O)c1ccccc1[N+](=O)[O-])c1ccccc1[N+](=O)[O-] | inactive: 48.6% |
| CCOC(=O)N1CCC(C(=O)Nc2ccc(OCC)cc2)CC1 | inconclusive: -78.8% |
| O=C(Oc1ccccc1)c1cccc(N2C(=O)CCC2=O)c1 | inconclusive: -40.6% |
| CCOC(=O)C1=C(C)N(CCCC(=O)O)C(=O)NC1c1ccc([N+](=O)[O-])cc1 (stereo unspecified) | inconclusive: -40.1% |
| CCCCC(c1nnnn1Cc1ccco1)N1CCN(c2nc3ccccc3s2)CC1 (stereo unspecified) | inconclusive: -42% |
| Cc1ccc(C(=O)N/C(=C\c2sccc2C)C(=O)NCc2ccncc2)cc1 | inconclusive: -51.3% |
| CN(Cc1cc(=O)n2ccsc2n1)c1ccccc1 | inconclusive: -57.6% |
| COc1ccc(-n2c(Cc3cccn3C)nnc2SCC(=O)Nc2ccc3c(c2)OCCO3)cc1 | inactive: 17% |
| CCCn1c(=NC(=O)c2ccco2)c(C(=O)OCC)cc2c(=O)n3ccccc3nc21 | inactive: 19.3% |
| CC(=O)c1cccc(NC(=O)c2cc(-c3ccc(C)cc3)on2)c1 | inconclusive: -52.1% |
| Cc1ccc(Nc2nnc(SCC(=O)Nc3cccnc3Cl)s2)cc1C | inconclusive: -50.6% |
| CCN(CC)C(=O)COc1ccc(-c2nnc(N3CCCCC3)c3ccccc23)cc1 | inconclusive: -41.7% |
| O=c1[nH]c(C(F)(F)F)nc2ccccc12 | inactive: -16.3% |
| COc1cccc(CNC(=O)CSCc2cnn(-c3ccccc3)c2-n2cccc2)c1 | inconclusive: -47.2% |
| Cc1occc1-c1nnc(SCC(=O)c2c[nH]c3ccccc23)n1C | inconclusive: -42.1% |
| O=C(C[n+]1cc(-c2ccccc2)n2c1CCC2)N1c2ccccc2Sc2ccccc21 | active: -119% |
| CCn1nc(NC(=O)c2ccncc2)c2cc3ccccc3nc21 | inconclusive: -40.3% |
| O=C(Nc1ccc(Cl)cc1)OCc1ccccn1 | inconclusive: -50.2% |
| O=C(Nc1ccccc1N1CCOCC1)C1CCN(S(=O)(=O)c2ccc(F)cc2)CC1 | inactive: -11.6% |
